Drawing on article PMC7658364, this text covers binding for one substance.

The test deals with T1, ER membrane protein complex subunit 6 (EMC6) (mouse (endogenous in pancreatic tissue of PRSS1Tg mice)) (UniProt Q9CQW0).
T1 sequence: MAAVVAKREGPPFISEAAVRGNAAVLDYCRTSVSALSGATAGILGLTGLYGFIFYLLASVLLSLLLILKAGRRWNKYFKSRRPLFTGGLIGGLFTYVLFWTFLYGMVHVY
Description: co-IP; pancreatic tissue lysate of six PRSS1Tg AP mice, pre-cleared with rabbit IgG and A/G beads; immunoprecipitated with anti-EMC6 antibody overnight at 4 °C, A/G beads; immunoblotted for EMC6 and APAF1; rabbit IgG as negative control. On the technique in general: In western blotting, separated proteins are transferred to a membrane and probed.

These are yes or no findings as the source states them, for the method shown. In cells and extracts the contact can be indirect. Some entries that bind do so weakly or less than the wild type.

As to “apoptotic peptidase activating factor 1 (APAF1) (from UniProt O88879-1 1-1249)”, the binding result is reported as “binds”.
